Reference: PMC12346298, “Structures of MmpL complexes reveal the assembly and mechanism of this family of transporters” (Science Advances, 2025)

Sequences of proteins named here, by UniProt entry; tags and fusion partners are left off.
UniProt A0R0B3: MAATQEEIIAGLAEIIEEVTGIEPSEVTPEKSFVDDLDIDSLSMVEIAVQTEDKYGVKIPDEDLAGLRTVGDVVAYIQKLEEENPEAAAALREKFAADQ

Key:
[1] = biological target: mycobacterial membrane protein large 5 (MmpL5) transporter, M. smegmatis (M. smegmatis) (UniProt A0QS80); experiment: cryo-EM structure; particle class 2 (tripartite trimeric AcpM-MmpL5-MmpS5 complex) from the same LMNG-solubilized crude membrane sample; Build and Retrieve processing; 2.81 Å
[2] = biological target: mycobacterial membrane protein large 5 (MmpL5) transporter, M. smegmatis (M. smegmatis) (UniProt A0QS80); experiment: cryo-EM structure; particle class 3 (dipartite trimeric AcpM-MmpL5 complex) from the same LMNG-solubilized crude membrane sample; Build and Retrieve processing; 3.37 Å

binding [1]: binds
binding [2]: binds
Substance: meromycolate extension acyl carrier protein M (AcpM), M. smegmatis (from UniProt A0R0B3 1-99)

Results are given in words; binding and its absence hold for the method and conditions named. A result given as binding can be weak or reduced; the word gives no strength.
